Experiment [1] concerns B. ovis. The experiment is described as follows: microbe, parasite or virus in culture. It counts as cell-based. The settings on record: Brucella ovis, THP-1, read-out: Intracellular IC50.
Experiment [2] concerns B. ovis. In words: microbe, parasite or virus in culture. It counts as cell-based. The settings on record: Brucella ovis, read-out: Axenic IC50.

pIC50: −log10 of the molar value. Where two headings read alike, the source gives them in different places. Bounds are passed on as bounds.

Consider `O=C1CCc2ccc(OCCCCN3CCN(c4cccc(Cl)c4Cl)CC3)cc2N1` [Aripiprazole], for which the negative logarithm of the IC50 (pIC50) (commonly the IC50 on a negative log10 scale, so that one unit is a factor of ten) was 5.40 in the experiment with B. ovis [1] and below 4.30 in the experiment with B. ovis [2].

These data come from paper PMC12306736 (PLOS Genetics, 2025).
